Measurements taken from PubChem BioAssay AID540276 (National Center for Advancing Translational Sciences (NCATS), 2011).
About 5,400 (1.8%) of roughly 300,000 compounds were called active. Inconclusive means that the source gave no clear call. Such entries were picked first, then a sample of the others. The call rests on the fitted dose curve; tested in HEK293 cells. Where the call is inconclusive, the potency comes from a doubtful curve fit.

Experiment: qHTS for inhibitors of binding or entry into cells for Marburg Virus
Details: Marburg virus pseudotyped entry inhibition, cell reporter; series mostly up to 37.8 µM
Potency means the concentration at half of the fitted maximal effect.

Compound | Potency
COc1ccc(NC(=O)c2cc3c(s2)-c2c(C)cccc2OC3)cc1Cl | inconclusive: 1.78 µM [inhibitor, partial curve, poor fit]
O=[N+]([O-])c1cc(-c2ncccn2)c([N+](=O)[O-])s1 | inconclusive: 18.4 µM [inhibitor, single point]
O=[N+]([O-])c1ccccc1NC1CCN(Cc2ccccc2)CC1 | inconclusive: 11.2 µM [inhibitor, partial curve, poor fit]
Cc1ccn2c(Nc3ccc4c(c3)OCCO4)c(-c3ccc(C)o3)nc2c1 | inconclusive: 3.16 µM [activator, full curve, poor fit]
CCc1ccc(NCc2nc3ccccc3c(=O)[nH]2)cc1 | inconclusive: 0.73 µM [activator, single point]
Cc1ccccc1-c1nc(CN2CCC(C(=O)NCc3ccc(F)cc3)CC2)c(C)o1 | inconclusive: 35.5 µM [inhibitor, single point]
Cn1c(CN2CCCC2)nc2cc(NC(=O)COc3ccc([N+](=O)[O-])cc3)ccc21 | inconclusive: 35.5 µM [inhibitor, single point]
CCc1cccc(NC(=O)COc2ccccc2)c1 | inactive
N#CCC(=O)Nc1ccc(C(=O)OCC(=O)NC2CCCc3ccccc32)cc1 (stereo not given) | inconclusive: 0.447 µM [inhibitor, full curve, poor fit]
COc1ccc2c(c1)N(S(=O)(=O)c1ccccc1)CCC2=O | inconclusive: 3.55 µM [activator, full curve]
CC(C)=C1C2CCC1C1C(=O)N(c3nc(-c4ccc(C(C)C)cc4)c(C)s3)C(=O)C21 (stereo not given) | inconclusive: 35.5 µM [inhibitor, single point]
Cc1cccc(CSc2nnc(CCCCCNC(=O)OC(C)(C)C)o2)c1 | inconclusive: 35.5 µM [inhibitor, single point]
Nn1c(Nc2ccccc2)nc2sc3c(c2c1=O)CCC3 | inconclusive: 35.5 µM [inhibitor, single point]
N#Cc1cccc2c1-c1ccccc1/C2=N/NC(N)=S | inconclusive: 22.4 µM [inhibitor, single point]
CCC1=NN(C(=O)C(=O)NCCc2ccccc2)C(O)(C(F)(F)F)C1 (stereo not given) | inconclusive: 0.0052 µM [activator, full curve, poor fit]
Cc1cc(C(=O)CSc2nnc(-c3ccc(F)cc3)o2)c(C)n1CC1CCCO1 (stereo not given) | inactive
CN(C)CCCNc1cc(N2CCN(C3CCCCC3)CC2)c2noc3c2c1C(=O)c1ccccc1-3 | inconclusive: 15.8 µM [inhibitor, partial curve, poor fit]
CCOc1ccc(N2C(=O)CC(NCCc3ccc(S(N)(=O)=O)cc3)C2=O)cc1 (stereo not given) | inactive
COc1ccccc1CNc1ccccc1F | inactive
Cc1ccccc1OCCSc1nc2ccc(NC(=O)c3cccc(F)c3)cc2s1 | inactive
O=C(NC1CCCCC1)c1ccc2c(c1)N(Cc1ccc(Cl)cc1)C(=O)c1ccccc1S2(=O)=O | inconclusive: 6.31 µM [inhibitor, partial curve, poor fit]
NC(=O)CC[C@H](NC(=O)c1ccc(F)cc1)C(=O)OCC(=O)Nc1ccc(N2CCOCC2)cc1 | inconclusive: 0.562 µM [activator, partial curve, poor fit]

Compound | Potency
CC12CCC(=O)N1C(C(=O)Nc1cccc(S(=O)(=O)N3CCCCCC3)c1)CS2 (stereo not given) | inconclusive: 0.891 µM [inhibitor, full curve, poor fit]
COCc1cc(N2CCN(c3ccccc3F)CC2)nc(-c2ccccc2)n1 | inactive
CCOc1ccc(-c2ccc(SCc3ccccn3)nn2)cc1 | inconclusive: 5.01 µM [activator, partial curve, poor fit]
CSCCC(NC(=O)C1CC1)c1nc2ccccc2[nH]1 (stereo not given) | inconclusive: 29.1 µM [activator, single point]
CCC(=O)c1ccc(OCC(=O)OCC(=O)Nc2sccc2C(N)=O)cc1 | inactive
CCN(CC)Cc1c(O)ccc2c([N+](=O)[O-])c(C)n(-c3ccc(OC)cc3)c12 | inconclusive: 35.5 µM [inhibitor, single point]
CC(Sc1nc(=O)cc(N)n1CCc1ccccc1)C(=O)Nc1ccccc1C#N (stereo not given) | inactive
CCOC(=O)C1CCN(c2ncnc3c2c(-c2ccccc2)cn3-c2ccccc2)CC1 | inconclusive: 10 µM [inhibitor, partial curve, poor fit]
Cc1ccc(CN2CCSc3ccc(C(=O)N4CCC5(CC4)OCCO5)cc32)cc1 | inconclusive: 11.2 µM [activator, single point]
Cc1ccccc1OCC(=O)Nc1ccc(N2CCN(C(=O)C(C)C)CC2)c(Cl)c1 | inconclusive: 29.1 µM [inhibitor, single point]
CCSC1(SCC)N=C(N)C2(C#N)C(c3ccc(OC)c(OC)c3OC)C12C#N (stereo not given) | inconclusive: 7.94 µM [inhibitor, partial curve, poor fit]
O=C(CN1C(=O)COc2ccc(S(=O)(=O)N3CCOCC3)cc21)N1CCN(c2ccc(F)cc2)CC1 | inactive
O=C(Nc1ccn(Cc2c(F)c(F)c(F)c(F)c2F)n1)c1cccc(Cn2cc([N+](=O)[O-])cn2)c1 | inconclusive: 18.3 µM [inhibitor, single point]
COc1cccc(C(=O)N/N=C/C(Br)=C/c2ccccc2)c1 | inconclusive: 6.31 µM [inhibitor, single point]
O=c1c(Cl)c(Cl)cnn1Cc1nnc(-c2ccc(Cl)cc2)o1 | inconclusive: 20 µM [inhibitor, single point]
COc1ccc(C(=O)NC(=S)Nc2cccnc2)cc1OC | inconclusive: 0.562 µM [activator, full curve, poor fit]
COc1ccc(-c2cc(C(=O)N3CCN(c4ccccc4OC)CC3)no2)cc1OC | inconclusive: 11.2 µM [inhibitor, partial curve, poor fit]
CCOC(=O)C1(Cc2ccccc2C(F)(F)F)CCN(C2CCCC2)CC1 | active: 7.94 µM
COc1ccc(NS(=O)(=O)c2ccc(NC(=S)NC(=O)c3cccnc3)cc2)nn1 | inconclusive: 35.5 µM [activator, single point]
Cc1oc(-c2ccc(Cl)cc2)nc1CS(=O)CC(=O)NCCCN(C)C1CCCCC1 (stereo not given) | inconclusive: 4.61 µM [inhibitor, partial curve, poor fit]
O=C(CC1NCCNC1=O)Nc1ccc(Cl)c(Cl)c1 (stereo not given) | inconclusive: 1.26 µM [activator, single point]
Cc1ccc(NC(=O)CN2CCCCCC2)cc1[N+](=O)[O-] | inactive

Reformatted tab-delimited: entries from further up
Compound	Potency
CCN(CC)Cc1c(O)ccc2c([N+](=O)[O-])c(C)n(-c3ccc(OC)cc3)c12	inconclusive: 35.5 µM [inhibitor, single point]
CC(Sc1nc(=O)cc(N)n1CCc1ccccc1)C(=O)Nc1ccccc1C#N (stereo not given)	inactive
CCOC(=O)C1CCN(c2ncnc3c2c(-c2ccccc2)cn3-c2ccccc2)CC1	inconclusive: 10 µM [inhibitor, partial curve, poor fit]
Cc1ccc(CN2CCSc3ccc(C(=O)N4CCC5(CC4)OCCO5)cc32)cc1	inconclusive: 11.2 µM [activator, single point]

Remaining list, next part:

Compound | Potency
Cc1ccc(S(=O)(=O)Nc2ccccc2/C=N/c2nc3ccccc3n2C(C)C)cc1 | inconclusive: 25.1 µM [inhibitor, single point]
Cc1ccc(S(=O)(=O)N2CCCOC2CNC(=O)C(=O)NCc2cccnc2)cc1 (stereo not given) | inconclusive: 2.82 µM [activator, single point]
Cc1cc2ccccc2c(=O)n1CC(=O)N(C)c1ccc(F)cc1 | inactive
CCCCSCCCNC(=O)Nc1ccc(C)c(C)c1 | inactive
CCc1cccc(NC(=O)Cn2nc(-c3cc(C)ccc3C)ccc2=O)c1 | inconclusive: 35.5 µM [inhibitor, single point]
COc1cc(OC)c(OC)cc1/C=N/N(C)c1ccccc1 | inconclusive: 15.8 µM [inhibitor, single point]
NC(=O)C1CCN(C(=O)CN2C(=O)c3ccccc3S2(=O)=O)CC1 | inactive
CCC(C)(C)n1nnnc1C(c1cccc(C#N)c1)N1CCN(c2cccc(C)c2C)CC1 (stereo not given) | inconclusive: 11.6 µM [inhibitor, partial curve, poor fit]
CCOC(=O)c1cc2c(=O)n3ccccc3nc2n(CC2CCCO2)c1=NC(=O)c1ccc(C)cc1 (stereo not given) | inactive
Cc1ccc(S(=O)(=O)C/N=C(/NC(=S)N(c2ccccc2)c2ccccc2)c2ccccc2)cc1 | inconclusive: 32.6 µM [inhibitor, single point]
Cc1ccc2cc(CN(c3ccc(C)c(C)c3)S(C)(=O)=O)c(=O)[nH]c2c1 | active: 10 µM
Cc1cccc2cc3c(NC(=O)C(C)(C)C)nn(CC(C)C)c3nc12 | inconclusive: 35.5 µM [inhibitor, single point]
Cc1ccc(NC(=O)CNC(=O)c2ccc3c(c2)OCO3)nc1 | inactive
CC1CCCCC1NC(=O)CN1C(=O)CSc2cc(S(=O)(=O)N3CCCCCC3)ccc21 (stereo not given) | inconclusive: 25.1 µM [inhibitor, single point]
CCCCOC1CC(c2ccc(OCc3ccc(OC)cc3)c(OC)c2)N(C)O1 (stereo not given) | inconclusive: 31.6 µM [inhibitor, single point]
CCOC(=O)CCCc1ccc(/C(C)=N/NC(N)=S)cc1 | inconclusive: 10 µM [inhibitor, single point]
O=C(Nc1ccc(Oc2ccccc2)nc1)C1CCN(Cc2ccco2)CC1 | inconclusive: 35.5 µM [inhibitor, single point]
Cc1ccccc1OC(=O)CSc1nnc(-c2cccs2)o1 | inconclusive: 0.562 µM [inhibitor, full curve, poor fit]
COc1ccc(C2CC(c3ccc4ccccc4c3)=NN2C(=O)CN2CCC(C(N)=O)CC2)cc1 (stereo not given) | inactive
Cc1ccc(NC(=O)CCn2nnc3ccccc32)cc1 | inconclusive: 32.6 µM [activator, single point]
CCc1ccc(Nc2cnn(-c3nc4ccccc4s3)c(=O)c2Cl)cc1 | inactive
